# Results: PubChem BioAssay AID1347076 (National Center for Advancing Translational Sciences (NCATS), 2019)
# Out of some 400,000 compounds screened, about 13,000 (3.2%) were called active. The shares of active, inactive and inconclusive entries below differ from those in the screen. Calls come from the whole dose curve; as a rule, active = well fitted cell-killing curve with a large enough effect; inconclusive = small, poorly fitted or top-dose-only effect, or effect the other way; inactive = flat fitted curve, though single readings scatter. A potency beside an inconclusive call is a rough fit, not a confirmed value.
# Test: qHTS assay for MDR1-selective chemotherapeutics: Primary screen using the drug-selected MDR subline cells KB-V1; note: nearly all actives have a fitted effect of over 60% in size
# Conditions: KB-V1 MDR cells viability, CellTiter-Glo, 72 h; activity change, negative = cytotoxicity: at 46.1 µM (top of the series)
# Procedure, shortened: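 Drug-selected KB-V1 cells, grown in DMEM lacking phenol red with 10% FBS, receive compound titrations; after three days at 37 degrees C, surviving cell ATP is quantified by CellTiter-Glo luminescence and responses normalized and curve-fitted.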
# % is set by controls: 0 for no effect and ±100 for the full control effect; potency is the fitted concentration of half-maximal effect.
Compound,Potency,"activity change, negative = cytotoxicity"
COc1cc(/C=N/NC(=O)CNC(=O)c2ccncc2)ccc1OC(C)=O,"inconclusive: 29.1 µM [rising, single point]",
COc1ccc(-c2cn3nc(N4CCC(C(=O)Nc5cc(Cl)ccc5OC)CC4)sc3n2)cc1,,inactive: 26.7%
CCc1ccc(-c2cc(C)no2)cc1S(=O)(=O)N1CCN(c2ccc(C(C)=O)cc2)CC1,"inconclusive: 0.206 µM [cytotoxic, full curve]",
COc1ccc(CCNC(=O)C(=O)NCC2OCCN2S(=O)(=O)c2ccc(F)cc2)cc1 (stereo not given),,inconclusive: -10.7%
CCOc1cc2c(cc1OCC)CN(C(=O)c1cccc(S(=O)(=O)N3CCCC3)c1)CC2,,inactive: -12.2%
Clc1ccc(-c2nnc(CSc3nnc(-c4cccs4)n3Cc3ccccc3)o2)cc1,"inconclusive: 20.6 µM [cytotoxic, partial curve, poor fit]",
CCOc1ccc(NC(=O)CCN2CCCCC2)cc1,"inconclusive: 9.2 µM [cytotoxic, partial curve]",
CCOC(=O)CC(NC(=O)c1ccccc1)c1ccc(OC)cc1 (stereo not given),"inconclusive: 6.51 µM [cytotoxic, partial curve]",
COc1cc(NC(=S)NC2CC(C)(C)NC(C)(C)C2)c(OC)cc1Cl,"inconclusive: 2.91 µM [rising, full curve, poor fit]",
Cc1onc(C(=O)N2CCN(c3ccccc3F)CC2)c1-c1ccccc1Cl,"inconclusive: 18.4 µM [cytotoxic, single point]",
CC(C)c1ccc(S(=O)(=O)N2CCN(C(=O)C3CC3C)CC2)cc1 (stereo not given),"inconclusive: 29.1 µM [cytotoxic, single point]",
Cc1noc(C)c1COC(=O)c1ccc2c(c1)S(=O)(=O)c1ccccc1C2=O,"inconclusive: 18.4 µM [cytotoxic, single point]",
Cc1ccc(NC(=O)C/C(N)=N/OC(=O)Nc2cccc(Cl)c2)cc1,"inconclusive: 29.1 µM [rising, single point]",
COc1cc(/C=C2/SC(=O)N(Cc3ccccc3)C2=O)ccc1OCc1ccncc1,,inactive: -4.28%
COc1ccc2c(CC(=O)OCC(=O)Nc3ccc(S(N)(=O)=O)cc3)coc2c1,"inconclusive: 29.1 µM [rising, single point]",
Cc1ccccc1C(=O)Nc1ccc2nc(SCCOc3ccccc3)sc2c1,,inactive: 14.7%
CCn1c(-c2csc3c2CCC(C)C3)n[nH]c1=S (stereo not given),"inconclusive: 29.1 µM [cytotoxic, single point]",
O=C(NCCCCCCNC(=O)OCc1ccccc1)OCc1ccccc1,,inactive: -8.7%
Cc1cc2oc(C(=O)Nc3c(C)n(C)n(-c4ccccc4)c3=O)c(C)c2cc1Cl,"inconclusive: 7.31 µM [cytotoxic, partial curve, poor fit]",
Cc1ccc(Nc2ccc(NCc3ccccc3)nn2)cc1C,"inconclusive: 20.6 µM [cytotoxic, partial curve, poor fit]",
O=C(O)C1Cc2ccccc2CN1S(=O)(=O)/C=C/c1ccccc1 (stereo not given),"inconclusive: 13 µM [rising, partial curve]",
Cc1cc(NC(=O)c2cccc(S(=O)(=O)N3CCCCCC3)c2)no1,"inconclusive: 10.3 µM [cytotoxic, partial curve]",

Compound,Potency,"activity change, negative = cytotoxicity"
O=C(Cc1csc(N2CCOCC2)n1)N/N=C/c1ccc(Cl)cc1Cl,"inconclusive: 18.4 µM [cytotoxic, single point]",
COc1ccc(Cl)cc1N(C(=O)c1ccco1)C(C(=O)NC1CCCC1)c1ccncc1 (stereo not given),,inactive: -32.8%
O=C(/C=C/c1ccc(Br)cc1)NC(=S)N1CCOCC1,,inactive: 7.95%
CCOC(=O)c1c(C)nc(C)c(C(=O)OCC)c1-c1ccc(OC)cc1,,inactive: 5.94%
CCN1C(=O)[C@H]2[C@@H](c3ccc(OC)cc3)N3C(=O)CN(CCOC)C(=O)[C@@]3(Cc3ccccc3)[C@H]2C1=O,,inactive: 0%
COc1ccc2c(c1)OC[C@H]1[C@H]2N2C(=O)c3cc(OC)ccc3NC(=O)[C@@]2(C)[C@H]1c1ccccc1,"inconclusive: 29.1 µM [cytotoxic, single point]",
COCC(=O)N(CCc1ccc(OC)c(OC)c1)Cc1nc2ccccc2c(=O)[nH]1,,inactive: 0%
CCOc1ccc(CNC(=O)CCCn2ccc3cc(S(=O)(=O)N4CCCC4)ccc32)cc1,"inconclusive: 18.4 µM [cytotoxic, single point]",
Cc1noc(C)c1S(=O)(=O)Nc1ccc2c(c1)C(=O)N([C@H](C)CO)C[C@@H](C)[C@@H](CN(C)Cc1ccc3c(c1)OCO3)O2,,inactive: 0.0002%
Cc1cc2c(ncn2C(C)C)c(NS(=O)(=O)c2ccc(F)cc2)c1C,"inconclusive: 13 µM [cytotoxic, partial curve]",
CCCCNC(=S)N1CCC(Cc2ccccc2)CC1,"inconclusive: 20.6 µM [cytotoxic, single point]",
Cc1ccc(C(=O)Nc2nc(-c3ccccc3)c(-c3ccccc3)o2)cc1,"inconclusive: 18.4 µM [cytotoxic, single point]",
COc1ccc(C[C@H]2CN3C(=NC[C@H]3Cc3ccccc3)N2CCNC(=O)c2ccc(C)c(Br)c2)cc1,"inconclusive: 29.1 µM [cytotoxic, single point]",
CCNc1nc(CC)nc2c1oc1ccccc12,"inconclusive: 13 µM [cytotoxic, partial curve, poor fit]",
COc1cccc(/C=N/NC(=O)c2cnccn2)c1O,,inactive: -26.2%
COc1cc(-c2nnc(SCC(=O)NC(C)C)o2)cc(OC)c1OC,"inconclusive: 0.206 µM [cytotoxic, full curve, poor fit]",
CN(CC(=O)Nc1cccc(C#N)c1)Cc1ccc(Cl)cc1,"inconclusive: 10.3 µM [cytotoxic, partial curve, poor fit]",
CC(=O)c1ccc(NC(=O)CSc2ccc3nc(-c4ccccc4)cn3n2)cc1,,inactive: -6.42%
COc1ccc(S(=O)(=O)c2ccc(OC)c(OC)c2)cc1OC,"inconclusive: 23.1 µM [cytotoxic, single point]",
S=c1nc(-c2sccc2OCc2ccc(Cl)cc2Cl)[nH][nH]1,"inconclusive: 29.1 µM [cytotoxic, single point]",
N#C/C(=N\Nc1cccc([N+](=O)[O-])c1)C(=O)c1ccc(Br)cc1,active: 1.46 µM,
CCN1CC(CN(C)Cc2nc(-c3ccc(OC)c4ccccc34)oc2C)CC1=O (stereo not given),"inconclusive: 1.64 µM [cytotoxic, single point]",

Compound,Potency,"activity change, negative = cytotoxicity"
CCN1C(=S)N[C@@H](c2cccc(F)c2)C(C(=O)OC)=C1C,"inconclusive: 5.17 µM [cytotoxic, partial curve, poor fit]",
CCC(C)(C)c1ccc(OCCCC[n+]2cccc(C)c2C)c(C(C)(C)CC)c1,,inactive: 15.6%
O=C(NCc1cccc(Cl)c1)NCc1cccc(Cl)c1,"inconclusive: 0.731 µM [rising, full curve, poor fit]",
O=C1CC[C@@]23CCCN2C(=O)CCCC3C1 (stereo not given in full),,inactive: -0.459%
CC(=O)c1cccc(NC(=O)c2ccccc2OCc2ccc(F)cc2)c1,"inconclusive: 16.4 µM [cytotoxic, partial curve]",
O=C(N/N=C/c1ccc[nH]1)c1cc(-c2cccs2)nc2ccccc12,"inconclusive: 29.1 µM [cytotoxic, single point]",
CCN(Cc1ccccc1)c1ccc(/C=C/c2ccnc3ccccc23)cc1,,inactive: -13.2%
Cc1ccc(C(=O)Nc2cccc(NC(=O)c3cccnc3)c2)cc1,"inconclusive: 20.6 µM [rising, single point]",
CSc1cc(-c2ccccc2)n(Cc2ccccc2Cl)c(=O)c1C#N,"inconclusive: 3.26 µM [cytotoxic, full curve]",
COc1cccc(CNC(=O)Cc2ccc(-c3ccccc3)cc2)c1,"inconclusive: 20.6 µM [cytotoxic, partial curve, poor fit]",
CCOC(=O)[C@H]1[C@H]2COc3cc(OC)ccc3[C@@H]2N2C(=O)CN(C)C(=O)[C@@]12C,,inactive: 2.64%
Cc1ccc2nc(-c3ccc(F)cc3)c(Cc3cccc(Cl)c3)n2c1,"inconclusive: 25.9 µM [cytotoxic, single point]",
Cc1ccccc1Oc1nc2c(c(=O)n(C)c(=O)n2C)n1Cc1ccc(Br)cc1,,inactive: -10.5%
C[C@H](NC(=O)C[C@@H]1CC[C@H]2[C@@H](COC[C@H](O)CN2Cc2ccc(C(F)(F)F)cc2)O1)c1ccccc1,"inconclusive: 14.6 µM [cytotoxic, partial curve, poor fit]",
COc1ccc(S(=O)(=O)N2CCCC(C(=O)Nc3ccc(NC(=O)c4ccccn4)cc3)C2)cc1 (stereo not given),"inconclusive: 18.4 µM [cytotoxic, single point]",
CCOc1cccc(NC(=O)C2CCCN(S(=O)(=O)c3ccc(OC)cc3)C2)c1 (stereo not given),"inconclusive: 29.1 µM [cytotoxic, single point]",
Cn1c(N2CCN(S(=O)(=O)c3ccc(Cl)cc3)CC2)nc2ccccc21,active: 16.4 µM,
COc1ccc(NC(=O)Nc2ccc3c(c2)C(=O)N([C@H](C)CO)C[C@H](C)[C@@H](CN(C)S(=O)(=O)c2ccccc2)O3)cc1,"inconclusive: 6.51 µM [rising, full curve, poor fit]",
Cn1c(SCC(=O)Nc2nc3c(s2)CCCC3)nnc1-c1ccccc1,"inconclusive: 0.58 µM [cytotoxic, partial curve, poor fit]",
CCOc1ncccc1C(=O)NCc1ccc(OC)c(OC)c1,"inconclusive: 29.1 µM [cytotoxic, partial curve, poor fit]",
O=C(COc1ccccc1[N+](=O)[O-])N(Cc1ccccc1)c1ccccn1,"inconclusive: 29.1 µM [cytotoxic, single point]",

# A draw from above in order of molar mass, ascending.
Compound,Potency,"activity change, negative = cytotoxicity"
CCNc1nc(CC)nc2c1oc1ccccc12,"inconclusive: 13 µM [cytotoxic, partial curve, poor fit]",
O=C(N/N=C/c1ccc[nH]1)c1cc(-c2cccs2)nc2ccccc12,"inconclusive: 29.1 µM [cytotoxic, single point]",
Cc1cc2c(ncn2C(C)C)c(NS(=O)(=O)c2ccc(F)cc2)c1C,"inconclusive: 13 µM [cytotoxic, partial curve]",
Clc1ccc(-c2nnc(CSc3nnc(-c4cccs4)n3Cc3ccccc3)o2)cc1,"inconclusive: 20.6 µM [cytotoxic, partial curve, poor fit]",
COc1ccc(-c2cn3nc(N4CCC(C(=O)Nc5cc(Cl)ccc5OC)CC4)sc3n2)cc1,,inactive: 26.7%
